# In the supplement of paper PMC12823440, “Inhibitors supercharge kinase turnover through native proteolytic circuits” (Nature, 2025):
# The chains behind the UniProt entries cited, without tags or fusion partners. Where a name states a change or a piece, a line headed by the entry shows the natural chain unless it says otherwise.
# UniProt Q9UBF8: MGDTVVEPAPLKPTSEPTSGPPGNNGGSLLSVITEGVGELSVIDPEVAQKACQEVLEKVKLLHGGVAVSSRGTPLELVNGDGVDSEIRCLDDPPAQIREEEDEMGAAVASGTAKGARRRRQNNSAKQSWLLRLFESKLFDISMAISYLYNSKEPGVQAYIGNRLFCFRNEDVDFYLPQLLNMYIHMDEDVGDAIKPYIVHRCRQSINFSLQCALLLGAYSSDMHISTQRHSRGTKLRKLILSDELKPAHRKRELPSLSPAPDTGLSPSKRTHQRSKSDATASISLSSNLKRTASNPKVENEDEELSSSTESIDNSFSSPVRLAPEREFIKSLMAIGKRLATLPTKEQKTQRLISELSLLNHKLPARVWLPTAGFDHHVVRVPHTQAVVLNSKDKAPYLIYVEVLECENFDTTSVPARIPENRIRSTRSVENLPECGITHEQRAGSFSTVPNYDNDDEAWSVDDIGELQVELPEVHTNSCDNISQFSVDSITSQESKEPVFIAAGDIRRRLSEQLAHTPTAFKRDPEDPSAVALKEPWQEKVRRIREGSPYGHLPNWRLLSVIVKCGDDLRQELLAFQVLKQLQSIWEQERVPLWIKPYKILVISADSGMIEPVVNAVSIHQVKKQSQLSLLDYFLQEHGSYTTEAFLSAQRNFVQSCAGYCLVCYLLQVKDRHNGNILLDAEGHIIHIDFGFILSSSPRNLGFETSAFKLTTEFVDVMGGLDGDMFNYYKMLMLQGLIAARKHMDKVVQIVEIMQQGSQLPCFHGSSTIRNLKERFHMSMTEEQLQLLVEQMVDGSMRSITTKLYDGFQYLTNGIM
# UniProt P53350, whole entry: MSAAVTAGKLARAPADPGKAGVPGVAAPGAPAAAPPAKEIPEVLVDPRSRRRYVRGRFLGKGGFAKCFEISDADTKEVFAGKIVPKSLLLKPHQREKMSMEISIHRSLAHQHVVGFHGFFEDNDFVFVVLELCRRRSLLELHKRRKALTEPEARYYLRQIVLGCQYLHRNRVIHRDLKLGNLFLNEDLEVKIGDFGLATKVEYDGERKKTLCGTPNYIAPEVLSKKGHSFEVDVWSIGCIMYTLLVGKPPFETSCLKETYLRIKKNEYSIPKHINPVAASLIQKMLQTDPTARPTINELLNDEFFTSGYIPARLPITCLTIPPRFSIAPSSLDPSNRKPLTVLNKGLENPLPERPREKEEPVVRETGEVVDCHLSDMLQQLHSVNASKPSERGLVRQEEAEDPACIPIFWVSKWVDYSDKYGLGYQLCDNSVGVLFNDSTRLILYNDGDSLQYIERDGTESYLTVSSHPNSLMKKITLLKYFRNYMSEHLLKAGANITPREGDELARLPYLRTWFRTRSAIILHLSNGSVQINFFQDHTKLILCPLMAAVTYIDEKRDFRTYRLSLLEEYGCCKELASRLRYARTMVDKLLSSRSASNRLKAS
# Counter-ions that a name gives are not always drawn. Some of the results follow. The calls rarely recur for the same compound in another form.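 Kinases, fused to nanoluciferase, were expressed in K562 cells; luminescence was measured every 4 h from 2 to 18 h as percent of control (DMSO = 100%, positive control = 0%). A time point is decreased if signal falls significantly (2 sigma). Hits were called by the authors by a rule that is not shown; the count of time points alone does not decide it.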
# Molecular target: PIK4CB (UniProt Q9UBF8)
# Assay: number of time points (of 5) at which kinase-Nluc abundance scored as decreased, DMSO-normalised (count); higher = more persistent destabilization
# Conditions: K562; 2-18 h
row,Compound,number of time points
1,O=C(NCCO)c1ccc2c(c1)nc(Nc1cccc(Cl)c1)c1ccncc12 [CK2 inhibitor 2] (10 µM),0
2,COc1ccc(CC(=O)Nc2nc3c(s2)CCc2ccccc2-3)cc1OC (10 µM),0
3,c1cc2c(cc1O[C@H]1OC[C@H]3[C@@H]1CO[C@@H]3c1ccc3c(c1)OCO3)OCO2 [Sesamolin] (10 µM),0
4,OCCNC1CCCc2c1[nH]c1ccc(-c3ccccc3)cc21 (stereo not given) (2.5 µM),0
5,CNc1nc(Nc2cnn(C3CCN(C4COC4)CC3F)c2Cl)ncc1C(F)(F)F (stereo not given) (10 µM),0
6,Cc1cc2cc(Nc3ccnc(Nc4ccc5[nH]c(C)cc5c4)n3)ccc2[nH]1 (2.5 µM),0
7,CC(C)(C)NC(=O)c1cncn1C1CCN(c2ccc(-c3nnc(C(F)(F)F)o3)cn2)CC1 (10 µM),0

# Molecular target: PLK1 (UniProt P53350)
# Assay: as above
# Conditions: K562; 2-18 h
row,Compound,number of time points
1,C[C@@H](c1ccc2nccn2c1)n1nnc2ncc(-c3cnn(C)c3)nc21 [Savolitinib] (10 µM),0
2,CN1C(=O)C(Cc2c[nH]c3ccccc23)NC1=S (stereo not given) [Necrostatin-1] (10 µM),0
3,C[C@@H]1C(=O)O[C@H](C)[C@H]1C[C@@H](O)[C@](C)(O)[C@H]1CC[C@@]2(O)C3=CC(=O)[C@@H]4C[C@@H](O)[C@@H](O)C[C@]4(C)[C@H]3CC[C@]12C [Cyasterone] (10 µM),0
4,CC(c1ccc(-c2cnc3c(-c4ccc(S(N)(=O)=O)c5ccccc45)cnn3c2)cc1)N1CCCC1 (stereo not given) (2.5 µM),0
5,CCn1c(=O)c(-c2ccc(-c3cncc(C)n3)cc2Cl)cc2cnc(NCCC3CCN(C)CC3)nc21 (10 µM),0
6,"O=C(O)c1cc(O)ccc1O [2,5-Dihydroxybenzoic acid] (10 µM)",0
7,CC(=NNC(=O)c1ccc(C)c(Br)c1)c1ccc(O)cc1O [mTOR inhibitor-1] (2.5 µM),0
8,Nc1ncnc2c1ncn2[C@@H]1O[C@H](CO)C[C@H]1O [Cordycepin] (10 µM),0
9,C=CC(=O)Nc1cc2c(Nc3ccc(OCc4ccccn4)c(Cl)c3)ncnc2cc1OCCN1CCOCC1 (10 µM),0
10,Cc1ccc(S(=O)(=O)Nc2ccccc2C=Nc2ccccc2NS(=O)(=O)c2ccc(C)cc2)cc1 (10 µM),0
11,CCOc1cc(C(=O)N2CCC(N3CCN(C)CC3)CC2)ccc1Nc1ncc2c(n1)N(C1CCCC1)c1ccccc1C(=O)N2C (10 µM),0
12,Cn1cnc(-c2cc3nccc(Oc4ccc(NC(=S)NC(=O)Cc5ccccc5)cc4F)c3s2)c1 [MGCD-265 analog] (10 µM),0
13,Cn1c(=O)c(F)c(Nc2ccc(I)cc2F)c2c(=O)n(C[C@@H](O)CO)cnc21 (10 µM),0
14,Nc1ncnc2c1c(-c1ccc(Oc3ccccc3)cc1)nn2C1CCNCC1 [N-piperidine Ibrutinib (hydrochloride)] (10 µM),0
15,Cc1csc(-c2nnc(Nc3ccc(Oc4ncccc4-c4ccnc(N)n4)cc3)c3ccccc23)c1 (2.5 µM),0
16,O=C(O)CCc1ccc(O)c(O)c1 [Dihydrocaffeic acid] (10 µM),0
17,COCCOc1cnc(Sc2cc(C)c(-c3csc(NC(=O)c4ccncc4)n3)c(C)c2)cn1 [T-1101 (tosylate)] (2.5 µM),0
18,Cc1cc(NC(=O)c2cccc(NC(=O)/C=C/CN(C)C)c2)ccc1Nc1nccc(-c2cccnc2)n1 (10 µM),0
19,Cc1c(NC(=O)OC[C@@H]2COCCN2)cn2ncnc(Nc3ccc4c(cnn4Cc4cccc(F)c4)c3)c12 (10 µM),0

row,Compound,number of time points
1,Cc1ccc(-c2c(C(=O)CF)n(CCCO)c3ncnc(N)c23)cc1 (10 µM),0
2,Cc1ccc(-c2c(C(=O)CCl)n(CCCO)c3ncnc(N)c23)cc1 (10 µM),0
3,COc1cc(F)c(F)c(Nc2ccc(I)cc2F)c1NS(=O)(=O)C1(C[C@H](O)CO)CC1 [Refametinib] (10 µM),0
4,CCN(CC)c1ccc2cc(C(=O)N3CCN(C(=O)C4=Cc5c(Br)cccc5S4(=O)=O)CC3)c(=O)oc2c1 (2 µM),0
5,COc1ccc(C(=C2C(=O)Nc3ccccc32)c2ccc(OC)cc2)cc1 (10 µM),0
6,N#Cc1ccc2ncnc(NC3CCC(N4CCOCC4)CC3)c2c1 (stereo not given) (10 µM),0
7,NCCN1CCN(C/C=C/C(=O)N2CCC[C@@H](n3nc(-c4ccc(Oc5ccccc5)cc4)c4c(N)ncnc43)C2)CC1 [Ibrutinib-MPEA] (10 µM),0
8,CN(CC(=O)N(Cc1ccc(C2CCCCC2)cc1)c1ccc(C(=O)O)cc1)S(=O)(=O)c1c(F)c(F)c(F)c(F)c1F (2.5 µM),0
9,CCn1c(C(=O)N(C2CC2)C2CC2)cc2c3c(ncn3C)c(Nc3cc(C)n(C)n3)nc21 (10 µM),0
10,CC(C)CN(CC(=O)N1CCN(CC(OCc2ccc3ccccc3c2)c2ccc(Cl)cc2Cl)CC1)CC(C)C (stereo not given) [LYN-1604 (dihydrochloride)] (2.5 µM),0
11,COc1ccc2[nH]cc(/C=C3\C(=O)Nc4ccc(NC(=O)CCN5CCCCC5)cc43)c2c1 (2.5 µM),0
12,CC(C)=CC(=O)CCC(=O)N1CCN(Cc2cc3nc(-c4cccc5[nH]ncc45)nc(N4CCOCC4)c3s2)CC1 (10 µM),0
13,O=C(NCCO)c1ccc2c(c1)nc(Nc1cccc(Cl)c1)c1ccncc12 [CK2 inhibitor 2] (10 µM),0
14,COc1ccc(CC(=O)Nc2nc3c(s2)CCc2ccccc2-3)cc1OC (10 µM),0
15,c1cc2c(cc1O[C@H]1OC[C@H]3[C@@H]1CO[C@@H]3c1ccc3c(c1)OCO3)OCO2 [Sesamolin] (10 µM),0
16,OCCNC1CCCc2c1[nH]c1ccc(-c3ccccc3)cc21 (stereo not given) (2.5 µM),0
17,CNc1nc(Nc2cnn(C3CCN(C4COC4)CC3F)c2Cl)ncc1C(F)(F)F (stereo not given) (10 µM),0
18,Cc1cc2cc(Nc3ccnc(Nc4ccc5[nH]c(C)cc5c4)n3)ccc2[nH]1 (2.5 µM),0
19,CC(C)(C)NC(=O)c1cncn1C1CCN(c2ccc(-c3nnc(C(F)(F)F)o3)cn2)CC1 (10 µM),0
